Laboratory results: PubChem BioAssay AID1053208 (Peter MacCallum Cancer Centre, 2014)

- Test: 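Genes whose silencing cuts survival of bone tumour cells only with doxorubicin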 (primary screen)
- Cell system: mouse osteosarcoma cells, early-passage culture from an engineered mouse model of fibroblastic bone tumour
- Reagents: siRNA pool against mouse genes, 40 nM
- Duration: about 120 h (48 h before drug, then 72 h with drug)
- Conditions: doxorubicin 100 nM for 72 h, roughly 30-40% inhibitory dose
- Detection: 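Luminescent ATP signal taken as viability with or without 100 nM doxorubicin for 72 h; mean of two wells set against non-targeting siRNA and turned into robust z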
- Direction: viability z-score with doxorubicin: higher = more viable cells under doxorubicin; viability z-score without drug: higher = more viable cells with knock-down alone
- Active means: 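a pool counts as active when its viability z-score with doxorubicin is -2 or below and its z-score without drug lies between -2 and 2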
Shown is a random part of about 17,000 deposited reagents. 788 of all reagents (4.7%) were called active. 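Calls rest on z-score classes alone; an extra cut-off of viability at most 70% of control was not applied to them.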 Entries without a mark were called inactive. Not all columns of the deposit are shown.

Depletion of Mcts1 came out at: combined z-score class no change with or without drug; viability z-score with doxorubicin 1.8; viability z-score without drug 0.17.
Oxsr1 showed combined z-score class no change with or without drug; viability z-score with doxorubicin 0.11; viability z-score without drug -1.01.
For Arl16, the entry reads combined z-score class high cell count without drug only; viability z-score with doxorubicin 1.8; viability z-score without drug 2.87.
Depletion of Mms19 came out at: combined z-score class low cell count without drug only; viability z-score with doxorubicin -1.35; viability z-score without drug -2.19.
For Crem, the entry reads combined z-score class no change with or without drug; viability z-score with doxorubicin 1.91; viability z-score without drug -0.17.
For Raet1a, the entry reads combined z-score class high cell count without drug only; viability z-score with doxorubicin 0.45; viability z-score without drug 2.02.
Sox8 gave combined z-score class no change with or without drug; viability z-score with doxorubicin 0.22; viability z-score without drug 0.
Nacc2 gave combined z-score class no change with or without drug; viability z-score with doxorubicin -0.9; viability z-score without drug -0.84.
After knock-down of Ddx52, the record shows combined z-score class no change with or without drug; viability z-score with doxorubicin 0; viability z-score without drug 0.51.
For Lamtor3, the entry reads combined z-score class high cell count without drug only; viability z-score with doxorubicin 1.35; viability z-score without drug 2.7.
Silencing of H1f7 came out at: combined z-score class no change with or without drug; viability z-score with doxorubicin -1.35; viability z-score without drug 0.34.
Tmigd1 gave combined z-score class no change with or without drug; viability z-score with doxorubicin 0.67; viability z-score without drug 1.85.
